Results reported in US20080047904A1, “Treatment for Hydrostatic Testing Water” (priority 2004, published 2008).

Experiments:
[1] = Reversion of phosphonate to orthophosphate by oxidizing biocides; assay type: physicochemical
Method: The biocides studied consisted of WELLGUARD® 7030, bleach (NaOCl), and activated sodium bromide (NaOCl and NaBr). The WELLGUARD® 7030 and bleach were added directly. Activated sodium bromide was prepared in situ by introducing 20 ppm bromide ion to the stock solution followed by addition of bleach. The phosphonates used in this work consisted of AMP (aminomethylene phosphonic acid), HEDP (hydroxyethylidene diphosphonic acid), and PBTC (phosphonobutanetricarboxylic acid). These materials were commercial samples (Mayoquest 1320, 1500, and 2100, respectively) obtained from Callaway Chemical Co. (Smyrna, Ga.).
Solutions consisting of 5 ppm scale inhibitor (as active phosphonate) in the presence of 10 ppm oxidant (as Cl2) were prepared as follows. To 900 mL deionized water were added appropriate stock solutions containing phosphonate, alkalinity (NaHCO3), and calcium hardness (CaCl2). The pH was adjusted to 9.1 with 5% aq. NaOH and diluted up to 1 L in a dark amber bottle. A dose of oxidant was added to achieve a residual of 10 ppm. The solutions were then periodically monitored for phosphonate reversion by determining the reversion to orthophosphate (Hach method 490). The oxidant residual was also periodically monitored using the DPD method (Hach method 80). All of this work was performed at room temperature (23° C.). The initial active phosphonate content was confirmed by conversion to orthophosphate via UV/persulfate oxidation followed by a conventional phosphate analysis (Hach method 501). A conversion factor was applied to the phosphate measurement to determine the initial amount of active phosphonate present as follows: AMP, 1.05; HEDP, 1.085; PBTC, 2.85.

[2] = as above; assay type: physicochemical; remark: listed apart in the source

[Na+].[O-]Cl [Bleach, NaOCl]
Phosphate, average ([1]; 5 ppm AMP, 10 ppm oxidant (as Cl2), pH 9.1, 23° C., 100-1360 minutes): 0.79 ppm
Phosphate ([1]; 5 ppm AMP, 10 ppm oxidant (as Cl2), pH 9.1, 23° C., 20 minutes): 0.35 ppm
Phosphate ([1]; 5 ppm AMP, 10 ppm oxidant (as Cl2), pH 9.1, 23° C., 40 minutes): 0.7 ppm
Phosphate ([1]; 5 ppm AMP, 10 ppm oxidant (as Cl2), pH 9.1, 23° C., 70 minutes): 0.53 ppm
Phosphate ([1]; 5 ppm AMP, 10 ppm oxidant (as Cl2), pH 9.1, 23° C., 100 minutes): 0.75 ppm
Phosphate ([1]; 5 ppm AMP, 10 ppm oxidant (as Cl2), pH 9.1, 23° C., 130 minutes): 0.8 ppm
Phosphate ([1]; 5 ppm AMP, 10 ppm oxidant (as Cl2), pH 9.1, 23° C., 190 minutes): 0.77 ppm
Phosphate ([1]; 5 ppm AMP, 10 ppm oxidant (as Cl2), pH 9.1, 23° C., 220 minutes): 0.59 ppm
Phosphate ([1]; 5 ppm AMP, 10 ppm oxidant (as Cl2), pH 9.1, 23° C., 250 minutes): 0.64 ppm
Phosphate ([1]; 5 ppm AMP, 10 ppm oxidant (as Cl2), pH 9.1, 23° C., 280 minutes): 0.83 ppm
Phosphate ([1]; 5 ppm AMP, 10 ppm oxidant (as Cl2), pH 9.1, 23° C., 310 minutes): 0.82 ppm
Phosphate ([1]; 5 ppm AMP, 10 ppm oxidant (as Cl2), pH 9.1, 23° C., 340 minutes): 0.8 ppm
Phosphate ([1]; 5 ppm AMP, 10 ppm oxidant (as Cl2), pH 9.1, 23° C., 370 minutes): 0.81 ppm
Phosphate ([1]; 5 ppm AMP, 10 ppm oxidant (as Cl2), pH 9.1, 23° C., 400 minutes): 0.79 ppm
Phosphate ([1]; 5 ppm AMP, 10 ppm oxidant (as Cl2), pH 9.1, 23° C., 520 minutes): 0.97 ppm
Phosphate ([1]; 5 ppm AMP, 10 ppm oxidant (as Cl2), pH 9.1, 23° C., 1360 minutes): 0.91 ppm
Phosphate ([1]; 5 ppm HEDP, 10 ppm oxidant (as Cl2), pH 9.1, 23° C., 20 minutes): 0 ppm
Phosphate ([1]; 5 ppm HEDP, 10 ppm oxidant (as Cl2), pH 9.1, 23° C., 40 minutes): 0 ppm
Phosphate ([1]; 5 ppm HEDP, 10 ppm oxidant (as Cl2), pH 9.1, 23° C., 70 minutes): 0.2 ppm
Phosphate ([1]; 5 ppm HEDP, 10 ppm oxidant (as Cl2), pH 9.1, 23° C., 100 minutes): 0.25 ppm
Phosphate ([1]; 5 ppm HEDP, 10 ppm oxidant (as Cl2), pH 9.1, 23° C., 130 minutes): 0.31 ppm
Phosphate ([1]; 5 ppm HEDP, 10 ppm oxidant (as Cl2), pH 9.1, 23° C., 190 minutes): 0.61 ppm
Phosphate ([1]; 5 ppm HEDP, 10 ppm oxidant (as Cl2), pH 9.1, 23° C., 220 minutes): 0.65 ppm
Phosphate ([1]; 5 ppm HEDP, 10 ppm oxidant (as Cl2), pH 9.1, 23° C., 250 minutes): 0.39 ppm
Phosphate ([1]; 5 ppm HEDP, 10 ppm oxidant (as Cl2), pH 9.1, 23° C., 280 minutes): 0.41 ppm
Phosphate ([1]; 5 ppm HEDP, 10 ppm oxidant (as Cl2), pH 9.1, 23° C., 310 minutes): 0.58 ppm
Phosphate ([1]; 5 ppm HEDP, 10 ppm oxidant (as Cl2), pH 9.1, 23° C., 340 minutes): 0.65 ppm
Phosphate ([1]; 5 ppm HEDP, 10 ppm oxidant (as Cl2), pH 9.1, 23° C., 370 minutes): 0.84 ppm
Phosphate ([1]; 5 ppm HEDP, 10 ppm oxidant (as Cl2), pH 9.1, 23° C., 400 minutes): 0.65 ppm
Phosphate ([1]; 5 ppm HEDP, 10 ppm oxidant (as Cl2), pH 9.1, 23° C., 460 minutes): 0.95 ppm
Phosphate ([1]; 5 ppm HEDP, 10 ppm oxidant (as Cl2), pH 9.1, 23° C., 520 minutes): 0.94 ppm
Phosphate, maximum amount of ortho-phosphate that can be liberated ([1]; AMP solution, 0 minutes, UV/persulfate oxidation, Hach method 501): 4.22^1 ppm
active phosphonate ([1]; AMP solution, 0 minutes, phosphate analysis X conversion factor 1.05): 4.4 ppm
averaged amount of phosphonate reversion ([1]; AMP, averaged): 18.7%
active phosphonate ([1]; HEDP solution, 0 minutes, phosphate analysis X conversion factor 1.085): 5.2 ppm
relative amount of phosphonate reversion ([1]; HEDP, after 520 minutes): 19.6%
Phosphate, average ([2]; 5 ppm PBTC, 10 ppm oxidant (as Cl2), pH 9.1, 23° C., 210-1360 minutes): 0.075 ppm
Phosphate ([2]; 5 ppm PBTC, 10 ppm oxidant (as Cl2), pH 9.1, 23° C., 30 minutes): 0 ppm
Phosphate ([2]; 5 ppm PBTC, 10 ppm oxidant (as Cl2), pH 9.1, 23° C., 60 minutes): 0 ppm
Phosphate ([2]; 5 ppm PBTC, 10 ppm oxidant (as Cl2), pH 9.1, 23° C., 90 minutes): 0 ppm
Phosphate ([2]; 5 ppm PBTC, 10 ppm oxidant (as Cl2), pH 9.1, 23° C., 120 minutes): 0 ppm
Phosphate ([2]; 5 ppm PBTC, 10 ppm oxidant (as Cl2), pH 9.1, 23° C., 150 minutes): 0 ppm
Phosphate ([2]; 5 ppm PBTC, 10 ppm oxidant (as Cl2), pH 9.1, 23° C., 180 minutes): 0 ppm
Phosphate ([2]; 5 ppm PBTC, 10 ppm oxidant (as Cl2), pH 9.1, 23° C., 210 minutes): 0.12 ppm
Phosphate ([2]; 5 ppm PBTC, 10 ppm oxidant (as Cl2), pH 9.1, 23° C., 270 minutes): 0.16 ppm
Phosphate ([2]; 5 ppm PBTC, 10 ppm oxidant (as Cl2), pH 9.1, 23° C., 330 minutes): 0.05 ppm
Phosphate ([2]; 5 ppm PBTC, 10 ppm oxidant (as Cl2), pH 9.1, 23° C., 360 minutes): 0.02 ppm
Phosphate ([2]; 5 ppm PBTC, 10 ppm oxidant (as Cl2), pH 9.1, 23° C., 390 minutes (first 390 line)): 0.02 ppm
Phosphate ([2]; 5 ppm PBTC, 10 ppm oxidant (as Cl2), pH 9.1, 23° C., 390 minutes (second 390 line)): 9.5 ppm
Phosphate ([2]; 5 ppm PBTC, 10 ppm oxidant (as Cl2), pH 9.1, 23° C., 1360 minutes): 0.08 ppm
active phosphonate ([2]; PBTC solution, 0 minutes, phosphate analysis X conversion factor 2.85): 4.1 ppm
average amount of phosphonate reversion ([2]; PBTC, after 3½ hours contact and beyond): 5.2%
